Source: doi:10.1101/2023.10.09.561576
No constants are given. Whether binding was seen depends on the method and setting. Binding seen in cells or lysates may run through a third protein. Here binding means that the protein was enriched with, or labelled near, the bait; the list need not be complete.

By UniProt entry, the sequences of proteins in these tests, tags left out.
UniProt Q96P20: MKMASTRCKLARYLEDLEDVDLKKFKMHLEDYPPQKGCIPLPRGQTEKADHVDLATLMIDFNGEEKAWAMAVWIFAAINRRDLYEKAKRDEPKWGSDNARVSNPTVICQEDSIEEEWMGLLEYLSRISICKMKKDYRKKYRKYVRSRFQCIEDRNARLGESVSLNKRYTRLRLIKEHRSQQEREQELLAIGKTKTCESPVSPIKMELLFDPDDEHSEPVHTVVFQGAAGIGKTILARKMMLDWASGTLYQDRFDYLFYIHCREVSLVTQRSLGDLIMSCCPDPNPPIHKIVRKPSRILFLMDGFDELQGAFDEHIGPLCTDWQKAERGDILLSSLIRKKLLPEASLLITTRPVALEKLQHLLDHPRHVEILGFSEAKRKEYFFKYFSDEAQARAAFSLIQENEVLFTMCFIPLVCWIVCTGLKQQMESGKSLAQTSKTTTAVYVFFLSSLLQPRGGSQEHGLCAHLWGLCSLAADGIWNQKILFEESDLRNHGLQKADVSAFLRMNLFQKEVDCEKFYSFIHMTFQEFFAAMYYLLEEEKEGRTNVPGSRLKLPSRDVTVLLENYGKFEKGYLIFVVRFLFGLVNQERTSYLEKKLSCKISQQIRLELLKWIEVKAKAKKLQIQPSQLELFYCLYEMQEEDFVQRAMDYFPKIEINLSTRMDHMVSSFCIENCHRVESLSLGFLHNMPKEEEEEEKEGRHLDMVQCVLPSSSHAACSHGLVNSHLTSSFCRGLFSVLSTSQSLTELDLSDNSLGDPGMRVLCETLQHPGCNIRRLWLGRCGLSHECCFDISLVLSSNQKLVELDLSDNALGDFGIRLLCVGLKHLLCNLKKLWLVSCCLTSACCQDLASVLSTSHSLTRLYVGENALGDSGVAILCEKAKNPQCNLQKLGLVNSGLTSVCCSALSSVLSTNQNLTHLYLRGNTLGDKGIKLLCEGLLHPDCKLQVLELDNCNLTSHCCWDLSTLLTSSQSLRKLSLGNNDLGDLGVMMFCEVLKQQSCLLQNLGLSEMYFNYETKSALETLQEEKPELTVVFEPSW

B1: PAN2 (enzyme, UniProt Q504Q3 1-1202)
chain: MNFEGLDPGLAEYAPAMHSALDPVLDAHLNPSLLQNVELDPEGVALEALPVQESVHIMEGVYSELHSVVAEVGVPVSVSHFDLHEEMLWVGSHGGHATSFFGPALERYSSFQVNGSDDIRQIQSLENGILFLTKNNLKYMARGGLIIFDYLLDENEDMHSLLLTDSSTLLVGGLQNHIIEIDLNTVQETQKYAVETPGVTIMRQTNRFFFCGHTSGKVSLRDLRTFKVEHEFDAFSGSLSDFDVHGNLLAACGFSSRLTGLACDRFLKVYDLRMMRAITPLQVHVDPAFLRFIPTYTSRLAIISQSGQCQFCEPTGLANPADIFHVNPVGPLLMTFDVSASKQALAFGDSEGCVHLWTDSPEPSFNPYSRETEFALPCLVDSLPPLDWSQDLLPLSLIPVPLTTDTLLSDWPAANSAPAPRRAPPVDAEILRTMKKVGFIGYAPNPRTRLRNQIPYRLKESDSEFDSFSQVTESPVGREEEPHLHMVSKKYRKVTIKYSKLGLEDFDFKHYNKTLFAGLEPHIPNAYCNCMIQVLYFLEPVRCLIQNHLCQKEFCLACELGFLFHMLDLSRGDPCQGNNFLRAFRTIPEASALGLILADSDEASGKGNLARLIQRWNRFILTQLHQDMQELEIPQAYRGAGGSSFCSSGDSVIGQLFSCEMENCSLCRCGSETVRASSTLLFTLSYPDGSKSDKTGKNYDFAQVLKRSICLDQNTQAWCDTCEKYQPTIQTRNIRHLPDILVINCEVNSSKEADFWRMQAEVAFKMAVKKHGGEISKNKEFALADWKELGSPEGVLVCPSIEELKNVWLPFSIRMKMTKNKGLDVCNWTDGDEMQWGPARAEEEHGVYVYDLMATVVHILDSRTGGSLVAHIKVGETYHQRKEGVTHQQWYLFNDFLIEPIDKHEAVQFDMNWKVPAILYYVKRNLNSRYNLNIKNPIEASVLLAEASLARKQRKTHTTFIPLMLNEMPQIGDLVGLDAEFVTLNEEEAELRSDGTKSTIKPSQMSVARITCVRGQGPNEGIPFIDDYISTQEQVVDYLTQYSGIKPGDLDAKISSKHLTTLKSTYLKLRFLIDIGVKFVGHGLQKDFRVINLMVPKDQVLDTVYLFHMPRKRMISLRFLAWYFLDLKIQGETHDSIEDARTALQLYRKYLELSKNGTEPESFHKVLKGLYEKGRKMDWKVPEPEGQTSPKNAAVFSSVLAL
B2: PRKD2 (enzyme, UniProt Q9BZL6 1-878)
chain: MATAPSYPAGLPGSPGPGSPPPPGGLELQSPPPLLPQIPAPGSGVSFHIQIGLTREFVLLPAASELAHVKQLACSIVDQKFPECGFYGLYDKILLFKHDPTSANLLQLVRSSGDIQEGDLVEVVLSASATFEDFQIRPHALTVHSYRAPAFCDHCGEMLFGLVRQGLKCDGCGLNYHKRCAFSIPNNCSGARKRRLSSTSLASGHSVRLGTSESLPCTAEELSRSTTELLPRRPPSSSSSSSASSYTGRPIELDKMLLSKVKVPHTFLIHSYTRPTVCQACKKLLKGLFRQGLQCKDCKFNCHKRCATRVPNDCLGEALINGDVPMEEATDFSEADKSALMDESEDSGVIPGSHSENALHASEEEEGEGGKAQSSLGYIPLMRVVQSVRHTTRKSSTTLREGWVVHYSNKDTLRKRHYWRLDCKCITLFQNNTTNRYYKEIPLSEILTVESAQNFSLVPPGTNPHCFEIVTANATYFVGEMPGGTPGGPSGQGAEAARGWETAIRQALMPVILQDAPSAPGHAPHRQASLSISVSNSQIQENVDIATVYQIFPDEVLGSGQFGVVYGGKHRKTGRDVAVKVIDKLRFPTKQESQLRNEVAILQSLRHPGIVNLECMFETPEKVFVVMEKLHGDMLEMILSSEKGRLPERLTKFLITQILVALRHLHFKNIVHCDLKPENVLLASADPFPQVKLCDFGFARIIGEKSFRRSVVGTPAYLAPEVLLNQGYNRSLDMWSVGVIMYVSLSGTFPFNEDEDINDQIQNAAFMYPASPWSHISAGAIDLINNLLQVKMRKRYSVDKSLSHPWLQEYQTWLDLRELEGKMGERYITHESDDARWEQFAAEHPLPGSGLPTDRDLGGACPPQDHDMQGLAERISVL
B3: PRKD3 (enzyme, UniProt O94806 1-890)
chain: MSANNSPPSAQKSVLPTAIPAVLPAASPCSSPKTGLSARLSNGSFSAPSLTNSRGSVHTVSFLLQIGLTRESVTIEAQELSLSAVKDLVCSIVYQKFPECGFFGMYDKILLFRHDMNSENILQLITSADEIHEGDLVEVVLSALATVEDFQIRPHTLYVHSYKAPTFCDYCGEMLWGLVRQGLKCEGCGLNYHKRCAFKIPNNCSGVRKRRLSNVSLPGPGLSVPRPLQPEYVALPSEESHVHQEPSKRIPSWSGRPIWMEKMVMCRVKVPHTFAVHSYTRPTICQYCKRLLKGLFRQGMQCKDCKFNCHKRCASKVPRDCLGEVTFNGEPSSLGTDTDIPMDIDNNDINSDSSRGLDDTEEPSPPEDKMFFLDPSDLDVERDEEAVKTISPSTSNNIPLMRVVQSIKHTKRKSSTMVKEGWMVHYTSRDNLRKRHYWRLDSKCLTLFQNESGSKYYKEIPLSEILRISSPRDFTNISQGSNPHCFEIITDTMVYFVGENNGDSSHNPVLAATGVGLDVAQSWEKAIRQALMPVTPQASVCTSPGQGKDHKDLSTSISVSNCQIQENVDISTVYQIFADEVLGSGQFGIVYGGKHRKTGRDVAIKVIDKMRFPTKQESQLRNEVAILQNLHHPGIVNLECMFETPERVFVVMEKLHGDMLEMILSSEKSRLPERITKFMVTQILVALRNLHFKNIVHCDLKPENVLLASAEPFPQVKLCDFGFARIIGEKSFRRSVVGTPAYLAPEVLRSKGYNRSLDMWSVGVIIYVSLSGTFPFNEDEDINDQIQNAAFMYPPNPWREISGEAIDLINNLLQVKMRKRYSVDKSLSHPWLQDYQTWLDLREFETRIGERYITHESDDARWEIHAYTHNLVYPKHFIMAPNPDDMEEDP

Molecular target: flag-NLRP3-APEX2 (human) (UniProt Q96P20)
Test: proximity labelling

binding, binds:
B1, B2, B3
